Test system: ScAMPI (SNAP-tag®-Epac1-HaloTag®) expressed in U2OS cells
Experiment: cAMP FLIM-FRET sensor ScAMPI (fluorescence lifetime imaging)
Format: cell-based
From the text: The Epac-based cAMP sensor “Epac-S^H189”, was obtained from Addgene (Plasmid #170348). This sensor consists of a mTurquoise fluorescent protein and a tdDark Venus protein linked via the Epac1 protein.
To construct the SNAP-tag®-Epac1-HaloTag® sensor, the sequence encoding the tdDark Venus domain in Epac-S^H189 was first replaced with the HaloTag® sequence using Nhe1 and Asc1 fragment ligation (NEB), creating a construct with mTurquoise and HaloTag® flanking the Epac1 domain (i.e, mTurquoise-Epac1-HaloTag®).
A gene block encoding the SNAP-tag® self-labeling protein (IDT) was then used to replace the portion encoding the mTurquoise domain in the mTurquoise-Epac1-HaloTag® using HindIII and AgeI fragment ligation. The sequence of this final plasmid encoding ScAMPI (i.e, SNAP-tag®-Epac1-HaloTag®) was confirmed through sequence analysis (Genewiz).
To evaluate this semisynthetic system in cells, U2OS cells (ATCC) were maintained in DMEM (Corning) containing 10% v/v FBS (ATCC), 1% v/v L-glutamine (Gibco) and 1% v/v Pen/Strep (Gibco). Cells were transfected with plasmid DNA using nucleofection (Lonza) and labeled 48 h post-transfection with 100 nM of JFX612^−SNAP-tag® (88STL) and 200 nM of the JQ645-HaloTag® ligand (65HTL) for 1 h. Cells were washed with 1×PBS (3×) and recovered in fresh medium for 30 min before imaging. Fluorescence lifetime imaging was performed with a Leica SP8 Falcon using LASX software for image acquisition and analysis. […] Fluorescence emission was collected by the HyD detector. The SNAP-tag® donor dye was excited at 610 nm and emission was collected at 620-720 nm. FLIM images were acquired before and 10 min after stimulation with 25 µM forskolin. FLIM data were fitted with two-component exponential fitting function yielding quenched lifetime (τ1) and unquenched lifetime (τ2). Mean amplitude weighted lifetime image (τmean) was calculated by fixing the two lifetimes and performing an image fit for their respective amplitudes (a1 and a2). FRET efficiency was calculated using the mean lifetime obtained in absence (τmean,-forskolin) and (τmean,+forskolin) presence of forskolin as 1^−(τmean,-forskolin/τmean,+forskolin).

SMILES | fluorescence lifetime at rest (ScAMPI labeled with 88STL (donor) and 65HTL (acceptor), FLIM, mean±SD) | fluorescence lifetime after forskolin (ScAMPI labeled with 88STL and 65HTL, application of forskolin) | Δτ (ScAMPI labeled with 88STL and 65HTL, ±forskolin) | fluorescence lifetime, donor fluorophore alone (cells labeled with the JFX612 donor only, FLIM)
C=C/C=C(C=C)/[N+](C)=C1\C=CC2=C(c3c(F)c(C(=O)NCCOCCOCCCCCCCl)c(F)c(F)c3C(=O)[O-])c3ccc(N(C)c4ccccc4)cc3C(C)(C)C2=C1 [65HTL, JQ645-HaloTag® ligand] | 2.34±0.10 ns | 3.32±0.18 ns | 0.98 ns | 
[2H]C1([2H])N(c2ccc3c(c2)C(C)(C)C2=CC(=[N+]4C([2H])([2H])C([2H])([2H])C([2H])([2H])C4([2H])[2H])C=CC2=C3c2cc(C(=O)NCc3ccc(COc4nc(N)nc5[nH]cnc45)cc3)ccc2C(=O)[O-])C([2H])([2H])C([2H])([2H])C1([2H])[2H] [88STL, JFX612^−SNAP-tag® ligand] |  |  |  | 4.30±0.01 ns

— patent publication US20250115628A1, “FLUORINATED FLUOROPHORES” (HOWARD HUGHES MEDICAL INSTITUTE, priority 2023, published 2025)
